In patent publication US11241011B2, “Microbiocidal quinoline (thio)carboxamide derivatives” (SYNGENTA PARTICIPATIONS AG, priority 2017, dated 2022):
Some results were stated once for a whole list of compounds, not compound by compound.

Tests used:
Type in all cases: cell-based
[1] = system: Botryotinia fuckeliana (Botrytis cinerea); experiment: Botryotinia fuckeliana (Botrytis cinerea) / liquid culture (gray mould); details: 200 ppm, growth inhibition photometrically 3-4 days after application, vs untreated control
[2] = system: Glomerella lagenarium (Colletotrichum lagenarium); experiment: Glomerella lagenarium (Colletotrichum lagenarium) / liquid culture (anthracnose); details: 200 ppm, growth inhibition photometrically 3-4 days after application, vs untreated control
[3] = system: Monographella nivalis (Microdochium nivale); experiment: Monographella nivalis (Microdochium nivale) / liquid culture (foot rot cereals); details: 200 ppm, growth inhibition photometrically 4-5 days after application, vs untreated control

Compound | disease control [1] | disease control [2] | disease control [3]
CC#CCC(C)(CC(C)C)C(=O)Nc1cnc2c(F)cccc2c1 (centres unmarked) [Compound E-5, N-(8-fluoro-3-quinolyl)-2-isobutyl-2-methyl-hex-4-ynamide] | at least 80% | at least 80% | at least 80%
CC(C)CC(C)(CC#CC1CC1)C(=O)Nc1cnc2c(F)cccc2c1 (centres unmarked) [Compound E-4, 5-cyclopropyl-N-(8-fluoro-3-quinolyl)-2-isobutyl-2-methyl-pent-4-ynamide] | at least 80% | at least 80% | at least 80%
CC(CC#CC1CC1)(CC(F)(F)F)C(=O)Nc1cnc2c(F)cccc2c1 (centres unmarked) [Compound E-1, 5-cyclopropyl-N-(8-fluoro-3-quinolyl)-2-methyl-2-(2,2,2-trifluoroethyl)pent-4-ynamide] | at least 80% | at least 80% | at least 80%
C#CCC(C)(CC(C)C)C(=O)Nc1cnc2c(F)cccc2c1 (centres unmarked) [Compound E-3, N-(8-fluoro-3-quinolyl)-2-isobutyl-2-methyl-pent-4-ynamide] | at least 80% | at least 80% | at least 80%
O=C(Nc1cnc2c(F)cccc2c1)C(CC#CC1CC1)CC(F)(F)F (centres unmarked) [Compound E-2, 5-cyclopropyl-N-(8-fluoro-3-quinolyl)-2-(2,2,2-trifluoroethyl)pent-4-ynamide] | at least 80% | at least 80% | –
